At least one structure is not confirmed: it was looked up by name or label, or the drawing left a doubt.
Test system: collagen type I synthesis in normal adult human fibroblasts
Assay: Immunolocalization of collagen type I in normal adult human fibroblasts (immunofluorescence, image analysis)
Format: cell-based
Details: 5×10^−4% tiliroside (P2), 72 hours, Anova
Method: The fibroblasts were seeded into 6-well plates with a glass coverslip in a proportion of 70 000 cells per dish, in MEM (Minimum Essential Medium). […] Each cell layer was then rinsed and fixed with methanol (−20° C.) before visualizing the collagen type I by immunofluorescence. […] The incubation time between each antibody is 1 hour. The cell nuclei are visualized by means of Dapi labeling. The coverslips are mounted on glass slides and then observed under a fluorescence microscope (Nikon Eclipse 50i). Photographs are taken of several fields of the cell population. The TRITC fluorescence images indicate the regions of localization of collagen type I. The DAPI fluorescence images indicate the cell nuclei and therefore the number of cells per field. The photographic images are analyzed using the Lucia image analysis software. The intensity of collagen labeling was observed on 14 and 15 photographic images according to the conditions. This fluorescence intensity is related to the number of cells per image. The differences in mean between the populations were studied by analysis of variance (Anova). This method uses measurements of variance in order to determine the significant or nonsignificant nature of the differences in mean measured on the populations.

O=C(/C=C/c1ccc(O)cc1)OC[C@H]1O[C@@H](Oc2c(-c3ccc(O)cc3)oc3cc(O)cc(O)c3c2=O)[C@H](O)[C@@H](O)[C@@H]1O [Tiliroside]
expression of collagen type I (fluorescence intensity related to the number of cells) compared with control: stimulates, to a lesser extent but in a statistically significant manner (p=0.0015)

From US20110144565A1, “COMBINATION OF A TILIROSIDE AND A PEPTIDE” (LABORATOIRES CLARINS, priority 2008, published 2011)
